Data as given in PubChem BioAssay AID504793 (Drosophila RNAi Screening Center, 2011)
Assay: 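Genes required for cells to halt at G2/M after double-strand DNA breaks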 (primary screen). Cell system: Drosophila S2R+ cells. Knock-down reagent: long dsRNA against Drosophila genes, about 0.25 µg dsRNA per well. Time to read-out: 4 days of dsRNA, then 4 hours of drug before read-out. Treatment: doxorubicin 0.5 µM for 4 hours to cause double-strand breaks, in cells also given a low, harmless dose of dsRNA against nbs to sensitise the assay. Measured: 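Per-well count of mitotic cells stained for phospho-histone H3 after doxorubicin exposure, used as mitotic index; counts are raw and not normalised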. Reading the numbers: mitotic cells: higher = more cells in mitosis, weaker G2 arrest. Active means: 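Genes are called active only when high mitotic counts were reproduced with independent dsRNAs and mitosis was checked for delay without damage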. Calls: active = confirmed in follow-up tests; inactive = not confirmed.
In all, the deposit lists about 23,000 reagents; this is a random part of those that have a named target and a result. Over the whole deposit, 62 (0.27%) got an active call. 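Calls come from follow-up tests whose scores are not deposited, so confirmed genes may have low counts here; counts are not normalised per plate.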 Raw values vary from plate to plate and are shown uncorrected.

Target gene	DRSC id	mitotic cells, replicate 1	Call
vir (virilizer)	DRSC04377	8	inactive
vir (virilizer)	DRSC26525	9	inactive
CG4701	DRSC01952	6	inactive
AQP (aquaporin)	DRSC06122	6	inactive
CG4537	DRSC02756	2	inactive
CG4440	DRSC02747	2	inactive
CG4440	DRSC28042	3	inactive
Rox8	DRSC16829	11	inactive
Rox8	DRSC29536	3	inactive
lncRNA:noe (long non-coding RNA:noe)	DRSC22747	15	inactive
lncRNA:noe (long non-coding RNA:noe)	DRSC24139	3	inactive
Idua (alpha-L-iduronidase)	DRSC02941		inactive
Cpr76Ba (Cuticular protein 76Ba)	DRSC11060	3	inactive
Cpr76Ba (Cuticular protein 76Ba)	DRSC27858	6	inactive
CG13088	DRSC02192	8	inactive
CG15536	DRSC15072	3	inactive
CG15536	DRSC22844	7	inactive
CG15536	DRSC27663	6	inactive
vls (valois)	DRSC02101	3	inactive
vls (valois)	DRSC27088	11	inactive
hydra	DRSC20497	3	inactive
Mgat3	DRSC01305	6	inactive
Mgat3	DRSC29398	2	inactive
p23	DRSC15158	13	inactive
p23	DRSC27806	8	inactive
Sec22 (Secretory 22)	DRSC18538	4	inactive
Sec22 (Secretory 22)	DRSC29297	4	inactive
CG31205	DRSC13438	21	inactive
CG31205	DRSC26824	15	inactive
wat (waterproof)	DRSC14854	4	inactive
ND-51L1 (NADH dehydrogenase (ubiquinone) 51 kDa subunit-like 1)	DRSC06072	3	inactive
Cox10 (Cytochrome c oxidase assembly factor 10)	DRSC02804	6	inactive
Ipk2 (Inositol phosphate kinase 2)	DRSC00357	4	inactive
Ipk2 (Inositol phosphate kinase 2)	DRSC24511	7	inactive
S-Lap8 (Sperm-Leucylaminopeptidase 8)	DRSC06870	13	inactive
S-Lap8 (Sperm-Leucylaminopeptidase 8)	DRSC21372	4	inactive
S-Lap8 (Sperm-Leucylaminopeptidase 8)	DRSC29560	6	inactive
CG8243	DRSC07122	4	inactive
CG8243	DRSC23414	7	inactive
CG9641	DRSC00721	4	inactive
CG9641	DRSC27080	2	inactive
Rab9	DRSC03281	7	inactive
lbe (ladybird early)	DRSC16985	9	inactive
lbe (ladybird early)	DRSC23597	5	inactive
CG42720 (retired record)	DRSC22549	9	inactive
CG42720 (retired record)	DRSC29811	8	inactive
AMPdeam (AMP deaminase)	DRSC19366	6	inactive
AMPdeam (AMP deaminase)	DRSC19368	6	inactive
AMPdeam (AMP deaminase)	DRSC19727	7	inactive
PCNA2 (Proliferating cell nuclear antigen 2)	DRSC02030	4	inactive
ATPsynD (ATP synthase, subunit D)	DRSC14093	7	inactive
ATPsynD (ATP synthase, subunit D)	DRSC26487	6	inactive
CG15446	DRSC20518	3	inactive
mRpL46 (mitochondrial ribosomal protein L46)	DRSC08391	7	inactive
CG14926	DRSC02409	14	inactive
Sp1	DRSC17622	2	inactive
Sp1	DRSC18717	8	inactive
Sp1	DRSC23810	12	inactive
Cyp6a9 (Cytochrome P450 6a9)	DRSC07385	4	inactive
CG14982	DRSC23022	10	inactive
CG1888	DRSC06797	5	inactive
CG7443	DRSC16244	1	inactive
CG33225	DRSC03881	24	inactive
Polr2C (RNA polymerase II subunit C)	DRSC03415	12	inactive
Polr2C (RNA polymerase II subunit C)	DRSC23584	23	inactive
FucTD (alpha1,3-fucosyltransferase D)	DRSC08634	6	inactive
Rai1 (Rat1 Interacting Protein 1)	DRSC20157	12	inactive
Rai1 (Rat1 Interacting Protein 1)	DRSC28722	8	inactive
CG11686	DRSC14350	8	inactive
CG17807	DRSC04296	4	inactive
CG17807	DRSC26388	6	inactive
CG2955	DRSC00552	4	inactive
St3 (Sulfotransferase 3)	DRSC04505	4	inactive
CG30380	DRSC05069	9	inactive
Usp7 (Ubiquitin-specific protease 7)	DRSC18909	6	inactive
Usp7 (Ubiquitin-specific protease 7)	DRSC19604	11	inactive
Usp7 (Ubiquitin-specific protease 7)	DRSC26109	10	inactive
